Measurements published in publication PMC7819943, “Rice protein-binding microarrays: a tool to detect cis-acting elements near promoter regions in rice”.
This is one part of the list.

Protein sequences, listed by entry. Tags and fused reporters are not part of them.
UniProt Q0JBA9, entry or part of it: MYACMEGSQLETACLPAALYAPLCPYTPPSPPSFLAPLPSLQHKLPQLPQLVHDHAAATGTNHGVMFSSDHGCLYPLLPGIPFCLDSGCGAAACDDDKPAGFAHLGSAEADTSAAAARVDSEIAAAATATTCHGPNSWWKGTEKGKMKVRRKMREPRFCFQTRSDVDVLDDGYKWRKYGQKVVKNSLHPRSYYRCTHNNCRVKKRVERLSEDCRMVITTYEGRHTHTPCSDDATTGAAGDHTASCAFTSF

Biological target: OsWRKY34 (Oryza sativa, UniProt Q0JBA9 1-250)
Assay: protein-binding microarray (RPBM); PBS, 2% BSA, 51.3 ng/ul salmon testes DNA, 50 uM zinc acetate, 200 nM TF, 25 C, 1 h; high values mean tight binding
Conditions: protein: recombinant; tags: N-terminal polyhistidine and DsRed monomer fusion (pET32a); label: CyDye5-dUTP incorporated in the synthesized complementary strand; 3' TTTTT single-stranded linker to array surface; dsDNA, one strand shown
Procedure, shortened: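 Binding signal is defined as the fluorescence intensity of each feature in arbitrary units, read on an Axon 4000B scanner. Transcription factors with N-terminal polyhistidine and DsRed fusions came from E. coli BL21-CodonPlus and were purified on Ni–NTA. They were incubated at 200 nM for 1 h at 25 °C on a custom Agilent array that had been made double-stranded with Cy5-dUTP, with 50 µM zinc acetate present, and the array was washed.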

Row | Sequence | binding signal
1 | CTTCCGCTTATGTTTTCACAAATTTCCAAAGTTTCCAATACGGAGTCACCTAGTGCAG | 8820 fluorescence intensity (a.u.)
2 | GGCCTTACTCTTTTTGGTGGGCTTTCGCTTCGGACTCCGCCGGAGTCACCTAGTGCAG | 10100 fluorescence intensity (a.u.)
3 | TGTTGCTGCTGCGGTGTGTGTGCTGGTGCTGCAGCTGCAGCGGAGTCACCTAGTGCAG | 10500 fluorescence intensity (a.u.)
4 | CTACATGGGTATCTATAGCTCTCTAATCCATTGCCTCGTTCGGAGTCACCTAGTGCAG | 9390 fluorescence intensity (a.u.)
5 | TGCAACGTGTCTTAAATCTTCCTATCTTCAGCTAGCCTACCGGAGTCACCTAGTGCAG | 8880 fluorescence intensity (a.u.)
6 | AAAACGACGTCTTGCAACCTTCACGTGCCATGACACCAACCGGAGTCACCTAGTGCAG | 8090 fluorescence intensity (a.u.)
7 | ACCATTCATTTCTATCTATTTTCTTAATAACTGTGTCTAACGGAGTCACCTAGTGCAG | 9260 fluorescence intensity (a.u.)
8 | TTTTCTTCTCTCTTGCGCCATCAACCCCGCGTCCAACCCACGGAGTCACCTAGTGCAG | 8380 fluorescence intensity (a.u.)
9 | CCCGTGTTTGTGTGTCTTTCTCAATTGCAAACTATCGTATCGGAGTCACCTAGTGCAG | 8990 fluorescence intensity (a.u.)
10 | TCATCTCATAGTTTACAAGCGGAATCTATAATTTGTTTTGCGGAGTCACCTAGTGCAG | 8510 fluorescence intensity (a.u.)
11 | TCCTGCCTTTATCTTGTTTCCTTTATCACTTCCATATCTGCGGAGTCACCTAGTGCAG | 14100 fluorescence intensity (a.u.)
12 | CATATATAGTCTTTGTCATGTTATTCCCAAGACTTACTTCCGGAGTCACCTAGTGCAG | 10800 fluorescence intensity (a.u.)
13 | CGCCCACTCTATCGTCTCGTCTCGTCTCTCCTCACTCCACCGGAGTCACCTAGTGCAG | 12400 fluorescence intensity (a.u.)
14 | CCACCTGTCGCCGCCGATGCTCCTCCTCACCGGTGTCCACCGGAGTCACCTAGTGCAG | 12200 fluorescence intensity (a.u.)
15 | ATCGGGACAGCGGGGTGACAACAATGACTACAACGACGGTCGGAGTCACCTAGTGCAG | 10900 fluorescence intensity (a.u.)
16 | ATCCTGGTGCTTTGTTTGATCATCCCTCAGTCAGATCCATCGGAGTCACCTAGTGCAG | 9150 fluorescence intensity (a.u.)
17 | TTACGACAACCCGCCATGTCTTTTTTTCCGCCATAAGTACCGGAGTCACCTAGTGCAG | 10500 fluorescence intensity (a.u.)
18 | TTCGTCTTCCCCGTCGCATTTACGCTGCCGATCCGAGCGCCGGAGTCACCTAGTGCAG | 8560 fluorescence intensity (a.u.)
19 | TGCTAACCCTGTTCCAGCTCAGCTCCATTGATGAACTACTCGGAGTCACCTAGTGCAG | 8020 fluorescence intensity (a.u.)
20 | CGTGGCAACAACCTCGTCGTCGTTCTTGTTCTTGTTCTTGCGGAGTCACCTAGTGCAG | 11500 fluorescence intensity (a.u.)
21 | GTAAAATAGGGGTTGGGTGTCGATAGCGGGAACAGTTGATCGGAGTCACCTAGTGCAG | 8340 fluorescence intensity (a.u.)

Row | Sequence | binding signal
22 | AGTTGGTGTATATGTTCTGTTCATGAACAATTTGGGATATCGGAGTCACCTAGTGCAG | 9290 fluorescence intensity (a.u.)
23 | CTCAGGCACATGTCCACGGTCCACCACAAGCGAGGCCCAACGGAGTCACCTAGTGCAG | 8270 fluorescence intensity (a.u.)
24 | TCTAGATTTATCCCCATTTTTGGCTGGGCCTTCTATTTAACGGAGTCACCTAGTGCAG | 8720 fluorescence intensity (a.u.)
25 | ACTACCCCTGTGTTTCATATTATAAGTCAGTTTTGAATTTCGGAGTCACCTAGTGCAG | 10000 fluorescence intensity (a.u.)
26 | ATTAATCTATGTTGCCAATTTTTTTCATATTTTTATGACTCGGAGTCACCTAGTGCAG | 10500 fluorescence intensity (a.u.)
27 | CATGGCAGTCACTTTCCCAGTTCCGGTTTTTGAATTGCTGCGGAGTCACCTAGTGCAG | 10500 fluorescence intensity (a.u.)
28 | AGGCAGTGGCTGTTTGCTCTTTGATCTGCATGTCCTTTGGCGGAGTCACCTAGTGCAG | 8800 fluorescence intensity (a.u.)
29 | TCTCTCTCTCTCACACGCACACACCACTCTCTCGCCCACTCGGAGTCACCTAGTGCAG | 9500 fluorescence intensity (a.u.)
30 | CTAGGAAGCGCCCCATCCCACCCACCGCCTAACCGCCTTCCGGAGTCACCTAGTGCAG | 11700 fluorescence intensity (a.u.)
31 | AGATAAAGGTGAGGGTACTCGTGTGGGGCTTTTAACTTTTCGGAGTCACCTAGTGCAG | 11700 fluorescence intensity (a.u.)
32 | TTCTTTTCTTTCTCTATATTTTTTTCATCAGTTACTTCTACGGAGTCACCTAGTGCAG | 8920 fluorescence intensity (a.u.)
33 | TCCCATGAGTGCTTTGTTCATGACTTTCAGGTCTTCTCTCCGGAGTCACCTAGTGCAG | 9670 fluorescence intensity (a.u.)
34 | TGCTGGCCGTGTTGCCACCAAGCTCGCCGAGGACCGTTGACGGAGTCACCTAGTGCAG | 8440 fluorescence intensity (a.u.)
35 | GGGAAACCGTTGCTCGTTGGCGCCAATTTTTCCCGCCATTCGGAGTCACCTAGTGCAG | 9210 fluorescence intensity (a.u.)
36 | AAAGTTTCTGTTGCACTATCCAAAACACACGTCAGTTTATCGGAGTCACCTAGTGCAG | 9530 fluorescence intensity (a.u.)
37 | TTGTTGCAATAACTGTCCAGGATGCTATTGTTCCACTTGTCGGAGTCACCTAGTGCAG | 8530 fluorescence intensity (a.u.)
38 | TTATCACTCCTCTTTTTTAATTGGCTATTGTTAATTATATCGGAGTCACCTAGTGCAG | 8920 fluorescence intensity (a.u.)
39 | TACATTTTTTTATTTTCTAGTTACATGGGGTAGCATATAGCGGAGTCACCTAGTGCAG | 8700 fluorescence intensity (a.u.)
40 | CTACTCCGCTCCGCCGTCGCTGTTGCTCTCTGATCCCTAGCGGAGTCACCTAGTGCAG | 11800 fluorescence intensity (a.u.)
41 | GAGCATTTGGTATTTGTTCTTCATCTCTGCTTCCGCCATGCGGAGTCACCTAGTGCAG | 8220 fluorescence intensity (a.u.)
42 | ACCATGCACCAGTTCTGCATAGTTCCCATGTTGCAGTTCTCGGAGTCACCTAGTGCAG | 8490 fluorescence intensity (a.u.)

Random excerpt: 2 records from the list
Row | Sequence | binding signal
40 | CTACTCCGCTCCGCCGTCGCTGTTGCTCTCTGATCCCTAGCGGAGTCACCTAGTGCAG | 11800 fluorescence intensity (a.u.)
36 | AAAGTTTCTGTTGCACTATCCAAAACACACGTCAGTTTATCGGAGTCACCTAGTGCAG | 9530 fluorescence intensity (a.u.)
